From article PMC4632068
Results are given in words; binding and its absence hold for the method and conditions named. Binding seen in cells or lysates may run through a third protein. A yes stands for co-enrichment or nearness to the bait. Other partners may have been found. Tags and fused reporters may be left off the sequences shown.

T1: Dhh1−GFP (S. cerevisiae (endogenous in BY4741-derived yeast)) (UniProt P39517)
T1 sequence: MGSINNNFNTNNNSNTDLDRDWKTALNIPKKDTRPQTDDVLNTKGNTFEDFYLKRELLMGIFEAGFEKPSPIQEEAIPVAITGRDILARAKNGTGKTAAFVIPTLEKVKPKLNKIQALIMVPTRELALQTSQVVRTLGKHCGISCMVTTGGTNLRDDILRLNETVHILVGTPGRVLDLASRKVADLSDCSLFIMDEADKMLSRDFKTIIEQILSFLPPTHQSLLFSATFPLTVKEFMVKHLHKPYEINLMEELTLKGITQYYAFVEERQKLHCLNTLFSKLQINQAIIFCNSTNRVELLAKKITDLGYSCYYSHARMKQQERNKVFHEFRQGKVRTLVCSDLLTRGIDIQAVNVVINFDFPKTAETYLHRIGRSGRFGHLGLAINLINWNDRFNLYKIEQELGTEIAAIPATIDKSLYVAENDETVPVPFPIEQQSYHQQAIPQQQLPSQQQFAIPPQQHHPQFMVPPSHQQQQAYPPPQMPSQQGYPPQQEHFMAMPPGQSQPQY

B1: Rps30A (protein, UniProt P0CX33 1-63)
chain: MAKVHGSLARAGKVKSQTPKVEKTEKPKKPKGRAYKRLLYTRRFVNVTLVNGKRRMNPGPSVQ
B2: Asc1 (protein, UniProt P38011 1-319)
chain: MASNEVLVLRGTLEGHNGWVTSLATSAGQPNLLLSASRDKTLISWKLTGDDQKFGVPVRSFKGHSHIVQDCTLTADGAYALSASWDKTLRLWDVATGETYQRFVGHKSDVMSVDIDKKASMIISGSRDKTIKVWTIKGQCLATLLGHNDWVSQVRVVPNEKADDDSVTIISAGNDKMVKAWNLNQFQIEADFIGHNSNINTLTASPDGTLIASAGKDGEIMLWNLAAKKAMYTLSAQDEVFSLAFSPNRYWLAAATATGIKVFSLDPQYLVDDLRPEFAGYSKAAEPHAVSLAWSADGQTLFAGYTDNVIRVWQVMTAN
B3: Def1 (protein, UniProt P35732 1-738)
chain: MSTQFRKSNHNSHSSKKLNPALKSKIDTLTELFPDWTSDDLIDIVQEYDDLETIIDKITSGAVTRWDEVKKPAKKEKYEKKEQQHSYVPQQHLPNPEDDITYKSSNNSNSFTSTKHNSSNNYTQARNKKKVQTPRAHTTGKHVNLDKGKHVPSKPVSNTTSWAAAVSVDTKHDVPQDSNDNNNEELEAQGQQAQEKNQEKEQEEQQQQEGHNNKEEHKQIEQPSLSSKKTTSRTSASQPKKMSWAAIATPKPKAVKKTESPLENVAELKKEISDIKKDDQKSEASEEKVNEQETSAQEQEEETAEPSEENEDRVPEVDGEEVQEEAEKKEQVKEEEQTAEELEQEQDNVAAPEEEVTVVEEKVEISAVISEPPEDQANTVPQPQQQSQQPQQPQQPQQPQQPQQPQQQQQPQQPQQPQQQLQQQQQQQQQPVQAQAQAQEEQLSQNYYTQQQQQQYAQQQHQLQQQYLSQQQQYAQQQQQHPQPQSQQPQSQQSPQSQKQGNNVAAQQYYMYQNQFPGYSYPGMFDSQGYAYGQQYQQLAQNNAQTSGNANQYNFQQGYGQAGANTAAANLTSAAAAAAASPATAHAQPQQQQPYGGSFMPYYAHFYQQSFPYGQPQYGVAGQYPYQLPKNNYNYYQTQNGQEQQSPNQGVAQHSEDSQQKQSQQQQQQQPQGQPQPEVQMQNGQPVNPQQQMQFQQYYQFQQQQQQAAAAAAAAAQQGVPYGYNGYDYNSKNSRGFY
B4: Ubp3 (protein, UniProt Q01477 1-912)
chain: MNMQDANKEESYSMYPKTSSPPPPTPTNMQIPIYQAPLQMYGYTQAPYLYPTQIPAYSFNMVNQNQPIYHQSGSPHHLPPQNNINGGSTTNNNNINKKKWHSNGITNNNGSSGNQGANSSGSGMSYNKSHTYHHNYSNNHIPMMASPNSGSNAGMKKQTNSSNGNGSSATSPSYSSYNSSSQYDLYKFDVTKLKNLKENSSNLIQLPLFINTTEAEFAAASVQRYELNMKALNLNSESLENSSVEKSSAHHHTKSHSIPKHNEEVKTETHGEEEDAHDKKPHASKDAHELKKKTEVKKEDAKQDRNEKVIQEPQATVLPVVDKKEPEESVEENTSKTSSPSPSPPAAKSWSAIASDAIKSRQASNKTVSGSMVTKTPISGTTAGVSSTNMAAATIGKSSSPLLSKQPQKKDKKYVPPSTKGIEPLGSIALRMCFDPDFISYVLRNKDVENKIPVHSIIPRGIINRANICFMSSVLQVLLYCKPFIDVINVLSTRNTNSRVGTSSCKLLDACLTMYKQFDKETYEKKFLENADDAEKTTESDAKKSSKSKSFQHCATADAVKPDEFYKTLSTIPKFKDLQWGHQEDAEEFLTHLLDQLHEELISAIDGLTDNEIQNMLQSINDEQLKVFFIRNLSRYGKAEFIKNASPRLKELIEKYGVINDDSTEENGWHEVSGSSKRGKKTKTAAKRTVEIVPSPISKLFGGQFRSVLDIPNNKESQSITLDPFQTIQLDISDAGVNDLETAFKKFSEYELLPFKSSSGNDVEAKKQTFIDKLPQVLLIQFKRFSFINNVNKDNAMTNYNAYNGRIEKIRKKIKYGHELIIPEESMSSITLKNNTSGIDDRRYKLTGVIYHHGVSSDGGHYTADVYHSEHNKWYRIDDVNITELEDDDVLKGGEEASDSRTAYILMYQKRN
B5: Sse1 (protein, UniProt P32589 1-693)
chain: MSTPFGLDLGNNNSVLAVARNRGIDIVVNEVSNRSTPSVVGFGPKNRYLGETGKNKQTSNIKNTVANLKRIIGLDYHHPDFEQESKHFTSKLVELDDKKTGAEVRFAGEKHVFSATQLAAMFIDKVKDTVKQDTKANITDVCIAVPPWYTEEQRYNIADAARIAGLNPVRIVNDVTAAGVSYGIFKTDLPEGEEKPRIVAFVDIGHSSYTCSIMAFKKGQLKVLGTACDKHFGGRDFDLAITEHFADEFKTKYKIDIRENPKAYNRILTAAEKLKKVLSANTNAPFSVESVMNDVDVSSQLSREELEELVKPLLERVTEPVTKALAQAKLSAEEVDFVEIIGGTTRIPTLKQSISEAFGKPLSTTLNQDEAIAKGAAFICAIHSPTLRVRPFKFEDIHPYSVSYSWDKQVEDEDHMEVFPAGSSFPSTKLITLNRTGDFSMAASYTDITQLPPNTPEQIANWEITGVQLPEGQDSVPVKLKLRCDPSGLHTIEEAYTIEDIEVEEPIPLPEDAPEDAEQEFKKVTKTVKKDDLTIVAHTFGLDAKKLNELIEKENEMLAQDKLVAETEDRKNTLEEYIYTLRGKLEEEYAPFASDAEKTKLQGMLNKAEEWLYDEGFDSIKAKYIAKYEELASLGNIIRGRYLAKEEEKKQAIRSKQEASQMAAMAEKLAAQRKAEAEKKEEKKDTEGDVDMD
B6: Stm1 (protein, UniProt P39015 1-273)
chain: MSNPFDLLGNDVEDADVVVLPPKEIVKSNTSSKKADVPPPSADPSKARKNRPRPSGNEGAIRDKTAGRRNNRSKDVTDSATTKKSNTRRATDRHSRTGKTDTKKKVNQGWGDDKKELSAEKEAQADAAAEIAEDAAEAEDAGKPKTAQLSLQDYLNQQANNQFNKVPEAKKVELDAERIETAEKEAYVPATKVKNVKSKQLKTKEYLEFDATFVESNTRKNFGDRNNNSRNNFNNRRGGRGARKGNNTANATNSANTVQKNRNIDVSNLPSLA
B7: Sis1 (protein, UniProt P25294 1-352)
chain: MVKETKLYDLLGVSPSANEQELKKGYRKAALKYHPDKPTGDTEKFKEISEAFEILNDPQKREIYDQYGLEAARSGGPSFGPGGPGGAGGAGGFPGGAGGFSGGHAFSNEDAFNIFSQFFGGSSPFGGADDSGFSFSSYPSGGGAGMGGMPGGMGGMHGGMGGMPGGFRSASSSPTYPEEETVQVNLPVSLEDLFVGKKKSFKIGRKGPHGASEKTQIDIQLKPGWKAGTKITYKNQGDYNPQTGRRKTLQFVIQEKSHPNFKRDGDDLIYTLPLSFKESLLGFSKTIQTIDGRTLPLSRVQPVQPSQTSTYPGQGMPTPKNPSQRGNLIVKYKVDYPISLNDAQKRAIDENF
B8: Yef3 (protein, UniProt P16521 1-1044)
chain: MSDSQQSIKVLEELFQKLSVATADNRHEIASEVASFLNGNIIEHDVPEHFFGELAKGIKDKKTAANAMQAVAHIANQSNLSPSVEPYIVQLVPAICTNAGNKDKEIQSVASETLISIVNAVNPVAIKALLPHLTNAIVETNKWQEKIAILAAISAMVDAAKDQVALRMPELIPVLSETMWDTKKEVKAAATAAMTKATETVDNKDIERFIPSLIQCIADPTEVPETVHLLGATTFVAEVTPATLSIMVPLLSRGLNERETGIKRKSAVIIDNMCKLVEDPQVIAPFLGKLLPGLKSNFATIADPEAREVTLRALKTLRRVGNVGEDDAIPEVSHAGDVSTTLQVVNELLKDETVAPRFKIVVEYIAAIGADLIDERIIDQQAWFTHITPYMTIFLHEKKAKDILDEFRKRAVDNIPVGPNFDDEEDEGEDLCNCEFSLAYGAKILLNKTQLRLKRARRYGICGPNGCGKSTLMRAIANGQVDGFPTQEECRTVYVEHDIDGTHSDTSVLDFVFESGVGTKEAIKDKLIEFGFTDEMIAMPISALSGGWKMKLALARAVLRNADILLLDEPTNHLDTVNVAWLVNYLNTCGITSITISHDSVFLDNVCEYIINYEGLKLRKYKGNFTEFVKKCPAAKAYEELSNTDLEFKFPEPGYLEGVKTKQKAIVKVTNMEFQYPGTSKPQITDINFQCSLSSRIAVIGPNGAGKSTLINVLTGELLPTSGEVYTHENCRIAYIKQHAFAHIESHLDKTPSEYIQWRFQTGEDRETMDRANRQINENDAEAMNKIFKIEGTPRRIAGIHSRRKFKNTYEYECSFLLGENIGMKSERWVPMMSVDNAWIPRGELVESHSKMVAEVDMKEALASGQFRPLTRKEIEEHCSMLGLDPEIVSHSRIRGLSGGQKVKLVLAAGTWQRPHLIVLDEPTNYLDRDSLGALSKALKEFEGGVIIITHSAEFTKNLTEEVWAVKDGRMTPSGHNWVSGQGAGPRIEKKEDEEDKFDAMGNKIAGGKKKKKLSSAELRKKKKERMKKKKELGDAYVSSDEEF
B9: Mkt1 (protein, UniProt P40850 1-830)
chain: MAIKSLESFLFERGLVGSYAIEALNNCTLDIDVNHYVSRLLTNKREQYLDAIGGFPTSLKMYLESDLKIFKDFNITPIFVFNGGLTYNQLEASGHFTAASASASISSTTTSSSGTNATTRSNTESVLLQRSRGWTQWNNLISSNQNSYIDQPIQPQEPFRHNTTIDSKAYQNDLIAYFIEHGYMYQVAPYSSWFQLAYLLNSAYIDAIYGPTDCLMLDCVDRFILGMEFPNKEFRFIDRSRVMKDLGCTHEEFIDIAMAVGNDLQPTTLPPLQIYPVPQLFDIALEMVLNTGTNFYAYQLSTTLQNDSKENIQNYQRGISALRYMPVLKDTGKVELFVQEIVVSEEDSEKNNKDGKKSNLSSPSSASSSASPATTVTKNASEKLTYEKSSTKEVRKPRDIPNDVHDFIGQMLPHEYYFYRSIGLVTGKLFDAIVTGVYPEEPPLGGGSSTSYKKLVSKSVEIFKNKEINLLTQPINRYYQIKQIKQVKWYAANEPTTLTNRMSPSMFETINHLIVKTETSDEKEFSISEFITTINGSSNMAKDFISEKVIFPNSVPIESKLNSPFNLLSTNFLRLLVLLEFFTFDFKEKLLEPTRWGEVFLKLNELNIDSKYHESVIIFLVFLKCDVLKLDEEVQPPAPSALSQATLRSYPEESLYVLLITRVLTLFQVDQKPSNYHGPIDKKTLIFRDHLSFIKENLNELFEAVLISSLTSGEFNRLSLDNFGWARKIVRYLPFKLDSPNTIMAMMWEFFLQKYLHNGNAKNDALSLVATEFNTYKSTPNLDEQFVESHRFLLEISKVMQELNAAKLIDENVFKLFTKAVEFTTTALSS

molecular target: T1, Dhh1−GFP (S. cerevisiae (endogenous in BY4741-derived yeast)); experiment: affinity purification with mass spectrometry; Dhh1−GFP captured by anti-GFP IgG cross-linked to Protein-G Dynabeads from cleared lysate of cryo-ground yeast; RB buffer (30 mM K-Hepes pH 7.4, 150 mM KCl, 2 mM MgCl2, 0.2% NP-40, 0.1% Tween-20, 1 mM DTT, RNase inhibitor), 30 min at 4°; five purifications (two +glucose YPD, three 30 min −glucose YEP); hits filtered by SAINT against CRAPome controls

binding, binds:
B1
B2
B3
B4
B5
B6
B7
B8
B9
